Laboratory results from publication PMC9827110.
These are yes or no findings as the source states them, for the method shown. In cells and extracts the contact can be indirect. A yes stands for co-enrichment or nearness to the bait. Other partners may have been found.

B1: pRB, endogenous in HEK293 (protein, UniProt P06400 1-928)
chain: MPPKTPRKTAATAAAAAAEPPAPPPPPPPEEDPEQDSGPEDLPLVRLEFEETEEPDFTALCQKLKIPDHVRERAWLTWEKVSSVDGVLGGYIQKKKELWGICIFIAAVDLDEMSFTFTELQKNIEISVHKFFNLLKEIDTSTKVDNAMSRLLKKYDVLFALFSKLERTCELIYLTQPSSSISTEINSALVLKVSWITFLLAKGEVLQMEDDLVISFQLMLCVLDYFIKLSPPMLLKEPYKTAVIPINGSPRTPRRGQNRSARIAKQLENDTRIIEVLCKEHECNIDEVKNVYFKNFIPFMNSLGLVTSNGLPEVENLSKRYEEIYLKNKDLDARLFLDHDKTLQTDSIDSFETQRTPRKSNLDEEVNVIPPHTPVRTVMNTIQQLMMILNSASDQPSENLISYFNNCTVNPKESILKRVKDIGYIFKEKFAKAVGQGCVEIGSQRYKLGVRLYYRVMESMLKSEEERLSIQNFSKLLNDNIFHMSLLACALEVVMATYSRSTSQNLDSGTDLSFPWILNVLNLKAFDFYKVIESFIKAEGNLTREMIKHLERCEHRIMESLAWLSDSPLFDLIKQSKDREGPTDHLESACPLNLPLQNNHTAADMYLSPVRSPKKKGSTTRVNSTANAETQATSAFQTQKPLKSTSLSLFYKKVYRLAYLRLNTLCERLLSEHPELEHIIWTLFQHTLQNEYELMRDRHLDQIMMCSMYGICKVKNIDLKFKIIVTAYKDLPHAVQETFKRVLIKEEEYDSIIVFYNSVFMQRLKTNILQYASTRPPTLSPIPHIPRSPYKFPSSPLRIPGGNIYISPLKSPYKISEGLPTPTKMTPRSRILVSIGESFGTSEKFQKINQMVCNSDRVLKRSAEGSNPPKPLKKLRFDIEGSDEADGSKHLPGESKFQQKLAEMTSTRTRMQKQKMNDSMDTSNKEEK
B2: RBL1, endogenous in HEK293 (protein, UniProt P28749 1-1068)
chain: MFEDKPHAEGAAVVAAAGEALQALCQELNLDEGSAAEALDDFTAIRGNYSLEGEVTHWLACSLYVACRKSIIPTVGKGIMEGNCVSLTRILRSAKLSLIQFFSKMKKWMDMSNLPQEFRERIERLERNFEVSTVIFKKYEPIFLDIFQNPYEEPPKLPRSRKQRRIPCSVKDLFNFCWTLFVYTKGNFRMIGDDLVNSYHLLLCCLDLIFANAIMCPNRQDLLNPSFKGLPSDFHTADFTASEEPPCIIAVLCELHDGLLVEAKGIKEHYFKPYISKLFDRKILKGECLLDLSSFTDNSKAVNKEYEEYVLTVGDFDERIFLGADAEEEIGTPRKFTRDTPLGKLTAQANVEYNLQQHFEKKRSFAPSTPLTGRRYLREKEAVITPVASATQSVSRLQSIVAGLKNAPSDQLINIFESCVRNPVENIMKILKGIGETFCQHYTQSTDEQPGSHIDFAVNRLKLAEILYYKILETVMVQETRRLHGMDMSVLLEQDIFHRSLMACCLEIVLFAYSSPRTFPWIIEVLNLQPFYFYKVIEVVIRSEEGLSRDMVKHLNSIEEQILESLAWSHDSALWEALQVSANKVPTCEEVIFPNNFETGNGGNVQGHLPLMPMSPLMHPRVKEVRTDSGSLRRDMQPLSPISVHERYSSPTAGSAKRRLFGEDPPKEMLMDKIITEGTKLKIAPSSSITAENVSILPGQTLLTMATAPVTGTTGHKVTIPLHGVANDAGEITLIPLSMNTNQESKVKSPVSLTAHSLIGASPKQTNLTKAQEVHSTGINRPKRTGSLALFYRKVYHLASVRLRDLCLKLDVSNELRRKIWTCFEFTLVHCPDLMKDRHLDQLLLCAFYIMAKVTKEERTFQEIMKSYRNQPQANSHVYRSVLLKSIPREVVAYNKNINDDFEMIDCDLEDATKTPDCSSGPVKEERGDLIKFYNTIYVGRVKSFALKYDLANQDHMMDAPPLSPFPHIKQQPGSPRRISQQHSIYISPHKNGSGLTPRSALLYKFNGSPSKSLKDINNMIRQGEQRTKKRVIAIDSDAESPAKRVCQENDDVLLKRLQDVVSERANH
B3: PTPN14 (tumor suppressor), endogenous in HEK293 (protein, UniProt Q15678 1-1187)
chain: MPFGLKLRRTRRYNVLSKNCFVTRIRLLDSNVIECTLSVESTGQECLEAVAQRLELRETHYFGLWFLSKSQQARWVELEKPLKKHLDKFANEPLLFFGVMFYVPNVSWLQQEATRYQYYLQVKKDVLEGRLRCTLDQVIRLAGLAVQADFGDYNQFDSQDFLREYVLFPMDLALEEAVLEELTQKVAQEHKAHSGILPAEAELMYINEVERLDGFGQEIFPVKDNHGNCVHLGIFFMGIFVRNRIGRQAVIYRWNDMGNITHNKSTILVELINKEETALFHTDDIENAKYISRLFATRHKFYKQNKICTEQSNSPPPIRRQPTWSRSSLPRQQPYILPPVHVQCGEHYSETHTSQDSIFHGNEEALYCNSHNSLDLNYLNGTVTNGSVCSVHSVNSLNCSQSFIQASPVSSNLSIPGSDIMRADYIPSHRHSAIIVPSYRPTPDYETVMRQMKRGILHTDSQSQSLRNLNIINTHAYNQPEDLVYSQPEMRERHPYTVPYGPQGVYSNKLVSPSDQRNPKNNVVPSKPGASAISHTVSTPELANMQLQGSHNYSTAHMLKNYLFRPPPPYPRPRPATSTPDLASHRHKYVSGSSPDLVTRKVQLSVKTFQEDSSPVVHQSLQEVSEPLTATKHHGTVNKRHSLEVMNSMVRGMEAMTLKSLHLPMARRNTLREQGPPEEGSGSHEVPQLPQYHHKKTFSDATMLIHSSESEEEEEEAPESVPQIPMLREKMEYSAQLQAALARIPNKPPPEYPGPRKSVSNGALRQDQASLPPAMARARVLRHGPAKAISMSRTDPPAVNGASLGPSISEPDLTSVKERVKKEPVKERPVSEMFSLEDSIIEREMMIRNLEKQKMAGLEAQKRPLMLAALNGLSVARVSGREENRVDATRVPMDERFRTLKKKLEEGMVFTEYEQIPKKKANGIFSTAALPENAERSRIREVVPYEENRVELIPTKENNTGYINASHIKVVVGGAEWHYIATQGPLPHTCHDFWQMVWEQGVNVIAMVTAEEEGGRTKSHRYWPKLGSKHSSATYGKFKVTTKFRTDSVCYATTGLKVKHLLSGQERTVWHLQYTDWPDHGCPEDVQGFLSYLEEIQSVRRHTNSMLEGTKNRHPPIVVHCSAGVGRTGVLILSELMIYCLEHNEKVEVPMMLRLLREQRMFMIQTIAQYKFVYQVLIQFLQNSRLI

The binders below were run against HPV42-E7, BirA*Flag-tagged BioID bait (human papillomavirus 42) (assay: proximity labelling; BioID: Flp-In T-REx HEK293 stably expressing N- or C-terminally BirA*Flag-tagged viral bait, 24 h with 1 ug/mL tetracycline and 50 umol/L biotin; streptavidin resin, tryptic digest, LC-MS/MS; compared with BirA* alone).

Row | Binder | binding
1 | B1 | binds
2 | B2 | binds
3 | B3 | binds
